According to PubChem BioAssay AID2685 (National Center for Advancing Translational Sciences (NCATS), 2010):
The campaign covered roughly 320,000 compounds. About 2,100 (0.66%) were called active. This list was built around the results that the source calls inconclusive (neither active nor inactive); the mix of calls is not that of the screen. Calls follow the shape of the dose curve; as a rule, active = well fitted inhibition curve with a large enough effect in the signal ratio, with a control signal flat (not every such curve was filed as active); inconclusive = small, poorly fitted or top-dose-only effect, or effect the other way, or a change in a side signal; inactive = flat fitted curve, though single readings scatter; the % refers to the signal ratio. A potency beside an inconclusive call is a rough fit, not a confirmed value.

Test: qHTS Assay for Lipid Storage Modulators in Drosophila S3 Cells
Details: BODIPY lipid droplet fluorescence, 18-24 h, cells fed with added oleic acid; lipid storage change, negative = inhibition: at 46.1 µM (top of the series) unless noted
In short: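 Drosophila S3 cells got compounds at several concentrations plus oleic acid (400 uM solution). Laser-scanning cytometry with 488 nm excitation read lipid droplets at 500-530 nm and cells at 575-640 nm. Percent activity was relative to 20 uM Triacsin C.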
% is scaled to controls: 0 for no effect and ±100 for the full control effect; potency is read from the fitted curve at half-maximal effect.

SMILES	lipid storage change, negative = inhibition	Potency
CSc1cccc(NC(=O)c2ccc(NC3=NC4CS(=O)(=O)CC4S3)cc2)c1 (configuration not stated)	inconclusive: -36%	–
Cc1cccc(N2CCCn3c2nc2c3c(=O)n(CCN3CCOCC3)c(=O)n2C)c1	inconclusive: 78.6%	–
COc1ccc(C2CC(=O)C3=C(C2)Nc2ccccc2N(C(=O)CCC(=O)O)C3c2ccc(F)cc2)cc1 (configuration not stated)	–	inconclusive: 1.03 µM [falling, full curve]
Cn1cc(-c2cccc(Cl)c2)cc(C#N)c1=O	–	inconclusive: 2.06 µM [falling, partial curve, poor fit]
Cn1c(CCNC(=O)c2ccccc2F)nnc1SCc1nc2ccccc2c(=O)[nH]1	–	inconclusive: 14.6 µM [activator, partial curve]
Cc1ccccc1-c1n[nH]c(=S)n1C	–	inconclusive: 13 µM [activator, partial curve]
Cc1c(Cc2ccccc2)c(=O)oc2cc(OCC(=O)N3CCC(C(N)=O)CC3)ccc12	inactive: -27.3%	–
COc1cccc(-c2coc3c(C)c4oc(=O)c(CCC(=O)O)c(C)c4cc23)c1	inconclusive: -18.3%	–
Nc1nonc1C(=O)N/N=C/c1ccc(Br)o1	inactive: -2.4%	–
Cc1ccc(SCCNC(=O)c2ccc([N+](=O)[O-])c(C)c2)cc1	–	inconclusive: 23.1 µM [falling, single point]
Nc1c(N(Cc2ccco2)C(=O)COc2ccccc2F)c(=O)[nH]c(=O)n1Cc1ccccc1	–	inconclusive: 1.64 µM [cytotoxic, partial curve]
Cc1occc1C(=O)NNC(=S)Nc1cccc([N+](=O)[O-])c1	inconclusive: -5.87%	–
Cc1ccc(NC(=O)c2ccc(Cl)c(S(=O)(=O)NCC3CCCO3)c2)c(O)c1 (configuration not stated)	inconclusive: -11.1%	–
COCC(=O)Nc1ccccc1C(=O)Nc1ccc(OC)cc1	inconclusive: -62% [at 0.0737 µM]	–
Cc1ccc(CNC(=O)CCS(=O)(=O)c2cccc3nsnc23)cc1	inconclusive: -59.6%	–
C/C(=N\NC(=O)c1cccc([N+](=O)[O-])c1)c1cccc(NC(=O)C2CC2)c1	inactive: 11.2%	–
Cc1ccc(S(=O)(=O)N2CCN(C(=O)n3ccnc3)CC2)cc1	inconclusive: -51.5%	–
O=C(NC(=S)NNC(=O)c1cccs1)c1ccco1	inconclusive: -33.9%	–
Cc1nnc2ccc(-c3cccc(NC(=O)c4ccc(Br)o4)c3)nn12	inconclusive: -21.4%	–
COc1ccccc1C(=O)NCC(=O)Nc1ccccc1	–	inconclusive: 9.2 µM [activator, partial curve]
Cc1noc(C)c1COC(=O)COc1ccc(C#N)cc1	inconclusive: -27.2%	–
COc1ccc(Cl)cc1NC(=O)NCc1ccco1	inconclusive: 15.7%	–
CCCCCC(O)c1cccc(OCc2ccc3ccccc3n2)c1 (configuration not stated)	–	inconclusive: 1.3 µM [activator, full curve, poor fit]
CCNS(=O)(=O)c1ccc(C(=O)OCC(=O)N2CCCc3ccccc32)cc1	inconclusive: 6.18%	–
CC(=O)Nc1ccc(NC(=O)C(C)OC(=O)CCC(=O)c2ccc(F)cc2)cc1 (configuration not stated)	inactive: 2.38%	–
CCOc1ccc(C(=O)CCC(=O)NCC(=O)Nc2c(C)cccc2C)cc1	inconclusive: 13.4%	–

SMILES	lipid storage change, negative = inhibition	Potency
Cc1ccc(COC(=O)CN2C(=O)NC3(CCCC3)C2=O)cc1	–	inconclusive: 20.6 µM [activator, partial curve]
CCCn1c(N)c(N(CCOC)C(=O)c2cc(-c3ccco3)nc3ccccc23)c(=O)[nH]c1=O	inconclusive: 11.1%	–
C=CCn1nnc2sc3c(c2c1=O)CCC(C)C3 (configuration not stated)	inconclusive: -4.19%	–
Cc1cccc(/C=N/NC(=O)c2cccc([N+](=O)[O-])c2)n1	inconclusive: 74.4%	–
O=C(Nc1ccc(SC(F)F)cc1)c1cccc2nc3ccccc3nc12	inconclusive: -26.2%	–
COc1ccc(Nc2ccc(C(F)(F)F)cc2[N+](=O)[O-])cn1	inconclusive: -97.2%	–
O=S(=O)(c1ccc(Cl)cc1)N1CCN(Cc2ccncc2)CC1	–	inconclusive: 6.51 µM [falling, single point]
O=c1c([N+](=O)[O-])c(N2CCOCC2)c2ccccc2n1Cc1ccccc1	inconclusive: -3.16%	–
CNC(=O)N1c2ccccc2NC(=O)CC1C (configuration not stated)	inconclusive: -11.9%	–
O=C(CN1CCN(c2ccc(F)cc2)CC1)NCC1CCCO1 (configuration not stated)	–	inconclusive: 16.4 µM [falling, single point]
O=C(CCCc1ccccc1)Nc1ccccc1C(F)(F)F	–	inconclusive: 0.146 µM [activator, partial curve, poor fit]
O=C(O)c1cccc(N2C(=O)c3cccnc3C2=O)c1	inconclusive: -50.5%	–
O=C(CC1C(=O)NCCN1C(=O)Nc1ccccc1)Nc1cccc(C(F)(F)F)c1 (configuration not stated)	inconclusive: 76.6%	–
CCOc1cc(C(=S)N2CCOCC2)ccc1OS(=O)(=O)c1ccccc1[N+](=O)[O-]	inconclusive: 96.6%	–
CN(C)CC1CCCCC1OC(=O)/C=C/c1ccc(Cl)cc1Cl (configuration not stated)	inconclusive: 6.49%	–
c1ccc2c3c([nH]c2c1)C(C1CCCCC1)N(Cc1ncc[nH]1)CC3 (configuration not stated)	inconclusive: -18%	–
COc1ccc(OC)c(CCNC(=O)CCc2cn(C)c3ccccc23)c1	–	inconclusive: 7.31 µM [activator, partial curve, poor fit]
Cc1ccc(-n2c(-c3nn(C)cc3Cl)n[nH]c2=S)cc1	inconclusive: 29.1%	–
CC(=O)c1ccc(NC(=O)CCc2nnc3ccc(N4CCCC4)nn23)cc1	–	inconclusive: 29.1 µM [activator, single point]
CC(CCc1ccccc1)NS(=O)(=O)c1ccccc1F (configuration not stated)	–	inconclusive: 0.517 µM [falling, full curve]
COC(CN(C)C(=O)c1ccc(CS(=O)(=O)c2ccccc2C)o1)OC	–	inconclusive: 29.1 µM [falling, single point]
Cc1cc(C)c(NC(=O)CSc2nc3ccccc3c(=O)n2CCCN2CCOCC2)c(C)c1	inconclusive: -1.25%	–
COc1ccc(/C=c2\s/c(=C/C(=O)c3ccc(C)cc3)[nH]c2=O)c(OC)c1	–	inconclusive: 29.1 µM [falling, single point]
Cc1ccccc1NC(=O)CSc1nc(N)c2c3c(sc2n1)CSC(C)(C)C3	inconclusive: -14.3%	–
Clc1ccc(-n2cc(-c3ccc(Br)cc3)[n+]3c2CCCCC3)cc1	–	inconclusive: 0.164 µM [rising, full curve, poor fit]
CCCOc1cccc(/C=N/NC(=O)c2csc(C)c2C)c1	inconclusive: -0.758%	–

SMILES	lipid storage change, negative = inhibition	Potency
Cc1c(C2(O)CCCCC2)[nH]c2cnccc12	–	inconclusive: 0.082 µM [activator, full curve, poor fit]
O=C1CC(c2ccco2)CC(O)=C1C=Nc1cc(Cl)cc(Cl)c1 (configuration not stated)	–	active: 25.9 µM
COc1ccc(N2CCCC2=N)c(OC)c1	inconclusive: -5.06%	–
Cn1c(=O)oc2cc(S(=O)(=O)N3CCC(C(=O)Nc4ccc(OC(F)(F)F)cc4)CC3)ccc21	inconclusive: -20.8%	–
S=c1nccc(-c2ccc3c(c2)CCO3)[nH]1	inconclusive: 13.7%	–
CC(=O)c1cccc(S(=O)(=O)N2CCC(c3nc4ccccc4[nH]3)CC2)c1	–	inconclusive: 0.58 µM [activator, single point]
CC1CC(C)CN(C(=O)COC(=O)c2cc([N+](=O)[O-])ccc2N2CCOCC2)C1 (configuration not stated)	inconclusive	–
CSc1ccccc1NC(=O)c1cc(C2CC2)on1	inconclusive: 35.9%	–
CCC(=O)N(C)CCc1cc2c(c(OC)c1/C=N/Nc1ccc(C(=O)O)cc1)OCO2	inconclusive: 22.7%	–
O=C(CNC(=O)c1ccc(Cl)cc1Cl)OCC(=O)N1CCCC1=O	inconclusive: 9.66%	–
COc1cccc(NC(=O)CN(c2ccc(C)cc2)S(=O)(=O)c2c(C)nn(C)c2C)c1	inconclusive: -0.131%	–
CCCCn1c(SCC(=O)Nc2cc(C(F)(F)F)ccc2Cl)nnc1C(CC)N(C)C (configuration not stated)	–	inconclusive: 0.103 µM [falling, partial curve, poor fit]
CCn1c(C(=O)NC2CCC(C)CC2)cc2sccc21 (configuration not stated)	–	inconclusive: 6.51 µM [activator, single point]
O=C(NCCCNC(=O)c1ccccc1Cl)c1cnccn1	–	inconclusive: 18.4 µM [activator, partial curve]
CCOc1cc(Br)c(C(=O)O)cc1OC	inconclusive: -14.1%	–
COc1ccc(CCC(=O)NCCc2ccc(Cl)cc2)cc1	inconclusive: 132%	–
COc1ccc(C)cc1S(=O)(=O)N(C)CC(=O)NCc1ccco1	–	inconclusive: 16.4 µM [activator, single point]
COCCCNC(=O)c1ccc(NC(C)=O)cc1	–	inconclusive: 0.731 µM [activator, single point]
O=C(O)Cc1ccc(C(=O)c2ccc(Cl)cc2)s1	inconclusive: 20.1%	–
O=C(NCC1CCCO1)C(=O)N/N=C/c1c(F)cccc1Cl (configuration not stated)	inconclusive: -129%	–
O=c1c2ccccc2ncn1-c1cccc(Br)c1	inconclusive: 38.9%	–
O=C(CNCCc1ccc(Cl)cc1)Nc1ccc(C(=O)N2CCCCC2)cc1	–	inconclusive: 29.1 µM [falling, partial curve, poor fit]
CC(O/N=C/c1ccccc1OC(F)F)C(=O)Nc1cccc(S(=O)(=O)N2CCOCC2)c1 (configuration not stated)	inconclusive: -84.3%	–
CCn1c(=O)c(=O)[nH]c2c(=O)oc3ccc(S(=O)(=O)Nc4ccccc4)cc3c21	–	active: 13 µM
Cc1ccc(CN2CC(C(=O)N(C)CC(=O)Nc3cccc(F)c3)CC2=O)cc1 (configuration not stated)	inconclusive: 10.7%	–
